The results in this text go back to article PMC9799981.

B1: ZNF335 (protein, UniProt A2A5K6 1-1337)
chain: MEENEVESSSDAAPRPGQPEEPSESGLGVCTSEAVSADSSDAATVPGLTEADDSGVGQSSDGGNHSVEEVSESISTDPLPHGCLPDSSSVSRGPVAEMPGGPPALVHSSVLPDPSMLVSDCTASSSDLGSAIDKIIESTIGPDLIQSCITVTSGEEGGAETTQYLILQGPDDGAPMASSMSTSTLANSLAAIEALADGPTSTSACLEPPEEPQGDPSSVAQQPPAPVTEELDLQSLEAMMEVVVVQQFKCKMCQYRSSTKATLLRHMRERHFRPALAAAAAATGKRGRVRKWGTSTKTTEEDRPEEEEEDDDIVDAGAIDDLEEDSDYNPAEDEPRGRQLRLQRPTPSTPRPRRRPGRPRKLPRLETSDLHDGVGQPLVSSQSTQSPPELQDLEAPSSSGLRALGKVGRGLVESGVSQSDAENAAPSCQDEADAPPRRRGRPSRRFLGKKYRKYYYKSPKPLLRPYLCRICGSRFLSHEDLRFHVNSHEAGDPQLFRCLQCSYRSRRWSSLKEHMFNHVGSKPYKCDECSYTSVYRKDVIRHAAVHSQDRKKRPDPTPKLSSFPCPVCGRVYPMQKRLTQHMKTHSTEKPHMCDKCGKSFKKRYTFKMHLLTHIQAVANRRFKCEFCEFVCEDKKALLNHQLSHVSDKPFKCSFCPYRTFREDFLLSHVAVKHTGAKPFACEYCHFSTRHKKNLRLHVRCRHANSFEEWGRRHPEEPPSRRRPFFSLQQIEELKQQHSTAPGPPLSSPGPEAPQEPAPFQSPETPPLLCPDALGGTTIIYQQGAEESTAVATQTALDLLLNMSAQRELGATALQVAVVKSEGIEAELTSTGGQPSPEDTTPRVVTLHMAESGSSVAAESQLGPSDLQQIALPSGPFGGASYSVITAPPVEGRTSASGPPYREEPPGEAAQAVVVSDTLKEAGTHYIMAADGTQLHHIELTADGSISFPSPDTLAPGTKWPLLQCGGPPRDGSEVLSPTKTHHMGGSQGSSTPPPAASHTLGLVVPQSPPSAAASSTKKFSCKVCSEAFPSRAEMESHKRAHAGPAAFKCPDCPFSARQWPEVRAHMAQHSSLRPHQCNQCSFASKNKKDLRRHMLTHTNEKPFSCHVCGQRFNRNGHLKFHIQRLHSIDGRKTGTSTARAPAQTIILNSEEETLATLHTAFQSSHGVLGTERLQQALSQEHIIVAQEQTVTNQEEATYIQEITADGQTVQHLVTSDNQVQYIISQDGVQHLLPQEYVVVPDGHHIQVQEGQITHIQYEQGTPFLQESQIQYVPVSPSQQLVTQAQLEAAAHSAVTAVADAAMAQAQGLFGTEEAVPEQIHQLQHQGIEYDVITLSDD
B2: paraspeckle protein C1 (PSPC1) (protein, UniProt Q8R326 1-523)
chain: MMLRGNLKQVRIEKNPARLRALESAAGESEPVAAAAMALTLAGEQAPPPAPSEEHPDEELGFTIDIKSFLKPGEKTYTQRCRLFVGNLPTDITEEDFKRLFERYGEPSEVFINRDRGFGFIRLESRTLAEIAKAELDGTILKSRPLRIRFATHGAALTVKNLSPVVSNELLEQAFSQFGPVEKAVVVVDDRGRATGKGFVEFAAKPPARKALERCGDGAFLLTTTPRPVIVEPMEQFDDEDGLPEKLMQKTQQYHKEREQPPRFAQPGTFEFEYASRWKALDEMEKQQREQVDRNIREAKEKLEAEMEAARHEHQLMLMRQDLMRRQEELRRLEELRNQELQKRKQIQLRHEEEHRRREEEMIRHREQEELRRQQEGGFKPNYMENREQEMRMGDMGPRGAINMGDAFSPAPAGTQGPPPMMGMNMNNRGTIPGPPMGPGPAMGPEGAANMGTPMIPDNGAVHNDRFPQGPPSQMGSPMGNRTGSETPQAPMSGVGPVSGGPGGFGRGSQGGNFEGPNKRRRY
B3: CPSF6 (protein, UniProt Q6NVF9 1-551)
chain: MADGVDHIDIYADVGEEFNQEAEYGGHDQIDLYDDVISPSANNGDAPEDRDYMDTLPPTVGDDVGKGAAPNVVYTYTGKRIALYIGNLTWWTTDEDLTEAVHSLGVNDILEIKFFENRANGQSKGFALVGVGSEASSKKLMDLLPKRELHGQSPVVTPCNKQFLSQFEMQSRKTTQSGQMSGEGKAGPPGGGSRAAFPQGGRGRGRFPGAVPGGDRFPGPAGPGGPPPPFPAGQTPPRPPLGPPGPPGPPGPPPPGQVLPPPLAGPPNRGDRPPPPVLFPGQPFGQPPLGPLPPGPPPPVPGYGPPPGPPPPQQGPPPPPGPFPPRPPGPLGPPLTLAPPPHLPGPPPGAPPPAPHVNPAFFPPPTNSGMPTSDSRGPPPTDPYGRPPPYDRGDYGPPGREMDTARTPLSEAEFEEIMNRNRAISSSAISRAVSDASAGDYGSAIETLVTAISLIKQSKVSADDRCKVLISSLQDCLHGIESKSYGSGSRRERSRERDHSRSREKSRRHKSRSRDRHDDYYRERSRERERHRDRDRDRDRERDREREYRHR
B4: CPSF7 (protein, UniProt Q8BTV2 1-471)
chain: MSEGVDLIDIYADEEFNQDSEFNNTDQIDLYDDVLTAASQPSDDRSSSTEPPPPVRQEPAPKPNNKTPAILYTYSGLRSRRAAVYVGSFSWWTTDQQLIQVIRSIGVYDVVELKFAENRANGQSKGYAEVVVASENSVHKLLELLPGKVLNGEKVDVRPATRQNLSQFEAQARKRECVRVPRGGIPPRAHSRDSSDSADGRATPSENLVPSSARVDKPPSVLPYFNRPPSALPLMGLPPPPIPPPPPLSSSFGVPPPPPGIHYQHLMPPPPRLPPHLAVPPPGAIPPALHLNPAFFPPPNATVGPPPDTYMKASTPYNHHGSRDSGPPPSTVSEAEFEEIMKRNRAISSSAISKAVSGASAGDYSDAIETLLTAIAVIKQSRVANDERCRVLISSLKDCLHGIEAKSYSVGASGSSSRKRHRSRERSPSRSRESSRRHRDLLHNEDRHDDYFQERNREHERHRDRERDRHH
B5: p54^nrb (endogenous mouse Nono) (protein, UniProt Q99K48 1-473)
chain: MQSNKAFNLEKQNHTPRKHHQHHHQQHHQQQQQQQQQQPPPPIPANGQQASSQNEGLTIDLKNFRKPGEKTFTQRSRLFVGNLPPDITEEEMRKLFEKYGKAGEVFIHKDKGFGFIRLETRTLAEIAKVELDNMPLRGKQLRVRFACHSASLTVRNLPQYVSNELLEEAFSVFGQVERAVVIVDDRGRPSGKGIVEFSGKPAARKALDRCSEGSFLLTTFPRPVTVEPMDQLDDEEGLPEKLVIKNQQFHKEREQPPRFAQPGSFEYEYAMRWKALIEMEKQQQDQVDRNIKEAREKLEMEMEAARHEHQVMLMRQDLMRRQEELRRMEELHNQEVQKRKQLELRQEEERRRREEEMRRQQEEMMRRQQEGFKGTFPDAREQEIRMGQMAMGGAMGINNRGAMPPAPVPPGTPAPPGPATMMPDGTLGLTPPTTERFGQAATMEGIGAIGGTPPAFNRPAPGAEFAPNKRRRY
B6: hnRNPF (protein, UniProt Q9Z2X1 1-415)
chain: MMLGPEGGEGYVVKLRGLPWSCSIEDVQNFLSDCTIHDGVAGVHFIYTREGRQSGEAFVELESEDDVKLALKKDRESMGHRYIEVFKSHRTEMDWVLKHSGPNSADSANDGFVRLRGLPFGCTKEEIVQFFSGLEIVPNGITLPVDPEGKITGEAFVQFASQELAEKALGKHKERIGHRYIEVFKSSQEEVRSYSDPPLKFMSVQRPGPYDRPGTARRYIGIVKQAGLDRMRSGAYSAGYGGYEEYSGLSDGYGFTTDLFGRDLSYCLSGMYDHRYGDSEFTVQSTTGHCVHMRGLPYKATENDIYNFFSPLNPVRVHIEIGPDGRVTGEADVEFATHEEAVAAMSKDRANMQHRYIELFLNSTTGASNGAYSSQVMQGMGVSAAQATYSGLESQSVSGCYGAGYSGQNSMGGYD
B7: CIRBP (protein, UniProt P60824 1-172)
chain: MASDEGKLFVGGLSFDTNEQALEQVFSKYGQISEVVVVKDRETQRSRGFGFVTFENIDDAKDAMMAMNGKSVDGRQIRVDQAGKSSDNRSRGYRGGSAGGRGFFRGGRSRGRGFSRGGGDRGYGGGRFESRSGGYGGSRDYYASRSQGGSYGYRSSGGSYRDSYDSYATHNE
B8: RBM3 (protein, UniProt O89086 1-153)
chain: MSSEEGKLFVGGLNFNTDEQALEDHFSSFGPISEVVVVKDRETQRSRGFGFITFTNPEHASDAMRAMNGESLDGRQIRVDHAGKSARGSRGGAFGGRGRSYSRGGGDQGYGSGRYDSRPGGYGYGYGRSRDYSGSQGGYDRYSGGNYRDNYDN
B9: hnRNPH1 (protein, UniProt O35737 1-449)
chain: MMLGAEGGEGFVVKVRGLPWSCSADEVQRFFSDCKIQNGAQGIRFIYTREGRPSGEAFVELESEDEVKLALKKDRETMGHRYVEVFKSNNVEMDWVLKHTGPNSPDTANDGFVRLRGLPFGCSKEEIVQFFSGLEIVPNGITLPVDFQGRSTGEAFVQFASQEIAEKALKKHKERIGHRYIEIFKSSRAEVRTHYDPPRKLMAMQRPGPYDRPGAGRGYNSIGRGAGFERMRRGAYGGGYGGYDDYNGYNDGYGFGSDRFGRDLNYCFSGMSDHRYGDGGSTFQSTTGHCVHMRGLPYRATENDIYNFFSPLNPVRVHIEIGPDGRVTGEADVEFATHEDAVAAMSKDKANMQHRYVELFLNSTAGASGGAYEHRYVELFLNSTAGASGGAYGSQMMGGMGLSNQSSYGGPASQQLSGGYGGGYGGQSSMSGYDQVLQENSSDFQSNIA
B10: UBAP2L (protein, UniProt Q80X50 1-1107)
chain: MMTSVGTNRARGNWEQPQNQNQTQHKQRPQATAEQIRLAQMISDHNDADFEEKVKQLIDITGKNQDECVIALHDCNGDVNRAINVLLEGNPDTHSWEMVGKKKGVSGQKDGGQTESNEEGKENRDRDRDYSRRRGGPPRRGRGASRGREFRGQENGLDGTKSGGPSGRGTDRGRRGRGRGRGSSGRRGGRFSAQGMGTFNPADYAEPANTDDNYGNSSGNTWNNTGHFEPDDGTRLDFIGVEGSNYPRKFETAPGAWRTATEEWGTEDWNEDLSETKIFTASNVSSVPLPAENVTITAGQRIDLAVLLGKTPSSMENDSSNLDPSQAPSLAQPLVFSNSKQNAISQPASGSTFSHHSMVSMLGKGFGDVGEAKGGSTTGSQFLEQFKTAQALAQLAAQHSQSGSTTTSSWDMGSTTQSPSLVQYDLKSANDSTVHSPFTKRQAFTPSSTMMEVFLQEKPPAVATSTAAPPPPSSPLPSKSTSAPQMSPGSSDNQSSSPQPAQQKLKQQKKKTSLTSKIPALAVEMPGSADISGLNLQFGALQFGSEPVLSDYESTPTTSASSSQAPSSLYTSTASESSSTVSSNQSQESGYQSGPIQSTTYTSQNNAQGPLYEQRSTQTRRYPSSISSSPQKDLTQAKNGFSSVQATQLQTTQSVEGATGSAVKSESPSTSSIPSLNETVPAASLLTTANQHSSSLSGLSHTEEIPNTTTTQHSSALSTQQNTLSSSTSSGRTSTSTLLHTSVESEANLHSSSSTFSTTSSTVSAPPPVVSVSSSLNSGSSLGLSLGSNSTVTASTRSSVATTSGKAPPNLPPGVPPLLPNPYIMAPGLLHAYPPQVYGYDDLQMLQTRFPLDYYSIPFPTPTTPLTGRDGSLASNPYSGDLTKFGRGDASSPAPATTLAQPQQNQTQTHHTTQQTFLNPALPPGYSYTSLPYYTGVPGLPSTFQYGPAVFPVAPTSSKQHGVNVSVNASATPFQQPSGYGSHGYNTGVSVTSSNTGVPDISGSVYSKTQQSFEKQGFHSGTPAASFNLPSALGSGGPINPATAAAYPPAPFMHILTPHQQPHSQILHHHLQQDGQTGSGQRSQTSSIPQKPQTNKSAYNSYSWGAN

Results are given in words; binding and its absence hold for the method and conditions named. In cells and extracts the contact can be indirect. A yes stands for co-enrichment or nearness to the bait. Other partners may have been found.

The target in this assay is HA-tagged p54^nrb. As to the kind of experiment: affinity purification with mass spectrometry; anti-HA immunoprecipitation from the nuclear fraction (RIPA) of HL-1 cells transduced with HA-p54^nrb, in normoxia or hypoxia (1% O2, 4 hr); 150 μg protein, protein G beads overnight at 4 °C, elution with HA peptides; label-free quantitative ….
Regarding B1, the binding result is recorded as “binds”.

With B2, the binding result is “binds”.

Consider B3, for which the binding result is “binds”.

Consider B4, for which the binding entry is on record as “binds”.

B5: the binding entry was “binds”.

For B6, the binding result was “binds”.

As for B7, the binding entry is given as “binds”.

For B8, the binding result was “binds”.

With B9, the binding result was “binds”.

For B10, the binding entry was “binds”.
